log2 fold change data for 11 targets are collected here from the supplement of paper PMC12819154, “High-throughput peptide-centric local stability assay extends protein–ligand identification to membrane proteins, tissues and bacteria” (Nature Structural & Molecular Biology, 2025).

By UniProt entry, the sequences of proteins in these tests, tags left out. Where a name states a change or a piece, a line headed by the entry shows the natural chain unless it says otherwise.
UniProt Q9C0C4, whole entry: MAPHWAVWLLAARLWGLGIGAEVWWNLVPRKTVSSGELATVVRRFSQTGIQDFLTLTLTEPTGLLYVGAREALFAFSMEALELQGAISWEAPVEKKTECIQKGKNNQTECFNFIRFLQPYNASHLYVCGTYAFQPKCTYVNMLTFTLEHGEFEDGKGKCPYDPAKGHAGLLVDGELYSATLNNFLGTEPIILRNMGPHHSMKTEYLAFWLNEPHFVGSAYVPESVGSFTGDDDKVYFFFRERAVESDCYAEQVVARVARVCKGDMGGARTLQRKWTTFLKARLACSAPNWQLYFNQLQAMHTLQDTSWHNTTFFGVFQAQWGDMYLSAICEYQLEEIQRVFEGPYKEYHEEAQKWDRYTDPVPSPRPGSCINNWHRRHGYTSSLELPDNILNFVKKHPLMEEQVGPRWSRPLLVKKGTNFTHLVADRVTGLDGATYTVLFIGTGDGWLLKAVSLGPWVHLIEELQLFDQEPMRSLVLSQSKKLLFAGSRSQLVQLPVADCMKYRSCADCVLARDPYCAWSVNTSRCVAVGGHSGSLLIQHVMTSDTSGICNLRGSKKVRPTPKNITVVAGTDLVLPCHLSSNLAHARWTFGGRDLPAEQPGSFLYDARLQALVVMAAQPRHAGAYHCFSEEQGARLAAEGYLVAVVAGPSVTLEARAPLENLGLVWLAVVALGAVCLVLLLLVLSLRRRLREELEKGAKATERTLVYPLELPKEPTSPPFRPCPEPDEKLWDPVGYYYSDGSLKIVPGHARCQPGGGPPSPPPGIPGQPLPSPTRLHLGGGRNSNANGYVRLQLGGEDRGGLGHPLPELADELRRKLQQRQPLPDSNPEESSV
UniProt Q9C0E8: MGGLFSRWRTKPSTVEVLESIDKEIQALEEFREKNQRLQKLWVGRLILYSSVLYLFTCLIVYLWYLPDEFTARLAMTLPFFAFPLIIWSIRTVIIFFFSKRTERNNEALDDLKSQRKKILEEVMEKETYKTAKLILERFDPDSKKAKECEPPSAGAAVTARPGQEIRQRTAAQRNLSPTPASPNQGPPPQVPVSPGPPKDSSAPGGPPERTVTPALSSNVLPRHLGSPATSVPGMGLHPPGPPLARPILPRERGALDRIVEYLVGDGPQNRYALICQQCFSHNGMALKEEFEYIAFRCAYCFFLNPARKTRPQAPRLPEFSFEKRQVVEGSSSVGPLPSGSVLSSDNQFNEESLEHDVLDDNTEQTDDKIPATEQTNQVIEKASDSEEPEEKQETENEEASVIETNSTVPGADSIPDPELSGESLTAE
UniProt Q9BX10: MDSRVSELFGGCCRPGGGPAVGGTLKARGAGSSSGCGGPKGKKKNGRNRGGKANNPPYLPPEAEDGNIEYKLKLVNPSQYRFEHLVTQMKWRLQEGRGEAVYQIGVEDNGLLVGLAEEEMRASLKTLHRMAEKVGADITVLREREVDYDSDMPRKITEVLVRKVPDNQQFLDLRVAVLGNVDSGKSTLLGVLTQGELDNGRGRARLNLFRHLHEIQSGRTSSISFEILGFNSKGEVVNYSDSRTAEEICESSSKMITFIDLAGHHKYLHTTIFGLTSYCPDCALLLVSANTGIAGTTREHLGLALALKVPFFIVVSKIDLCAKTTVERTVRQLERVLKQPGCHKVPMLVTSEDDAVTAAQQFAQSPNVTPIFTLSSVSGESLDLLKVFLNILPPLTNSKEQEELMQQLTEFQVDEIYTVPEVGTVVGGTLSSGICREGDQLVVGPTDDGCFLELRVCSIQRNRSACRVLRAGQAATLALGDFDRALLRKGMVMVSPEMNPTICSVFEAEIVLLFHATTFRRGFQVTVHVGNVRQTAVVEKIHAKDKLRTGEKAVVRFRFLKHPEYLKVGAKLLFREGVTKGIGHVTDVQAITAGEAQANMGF
UniProt Q9C086, whole entry: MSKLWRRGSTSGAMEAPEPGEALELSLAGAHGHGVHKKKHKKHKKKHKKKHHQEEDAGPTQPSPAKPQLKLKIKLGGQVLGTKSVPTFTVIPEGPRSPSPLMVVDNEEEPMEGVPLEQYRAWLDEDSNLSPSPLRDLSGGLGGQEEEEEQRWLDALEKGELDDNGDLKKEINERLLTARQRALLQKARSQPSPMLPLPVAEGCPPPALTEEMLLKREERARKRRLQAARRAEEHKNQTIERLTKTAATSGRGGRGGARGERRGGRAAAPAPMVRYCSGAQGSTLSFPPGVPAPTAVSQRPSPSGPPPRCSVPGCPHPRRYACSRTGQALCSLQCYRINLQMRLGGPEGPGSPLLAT
UniProt Q9BWN1: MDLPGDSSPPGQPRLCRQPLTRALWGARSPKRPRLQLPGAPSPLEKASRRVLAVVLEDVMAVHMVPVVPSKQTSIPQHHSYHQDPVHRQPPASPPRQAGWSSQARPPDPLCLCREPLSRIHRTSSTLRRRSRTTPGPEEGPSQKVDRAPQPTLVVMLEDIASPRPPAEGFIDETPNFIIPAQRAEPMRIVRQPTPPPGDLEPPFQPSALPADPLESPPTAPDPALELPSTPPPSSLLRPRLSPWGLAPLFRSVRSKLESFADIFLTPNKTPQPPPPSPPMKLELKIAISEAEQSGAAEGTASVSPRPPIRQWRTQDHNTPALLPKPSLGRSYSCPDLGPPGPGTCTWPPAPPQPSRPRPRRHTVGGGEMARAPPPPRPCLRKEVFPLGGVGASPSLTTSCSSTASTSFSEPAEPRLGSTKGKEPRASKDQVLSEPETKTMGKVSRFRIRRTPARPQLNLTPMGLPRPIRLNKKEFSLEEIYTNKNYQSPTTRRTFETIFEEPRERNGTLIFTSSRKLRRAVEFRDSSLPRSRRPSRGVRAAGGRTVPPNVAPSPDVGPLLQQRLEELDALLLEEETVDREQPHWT
UniProt Q9H2K0, whole entry, looked up: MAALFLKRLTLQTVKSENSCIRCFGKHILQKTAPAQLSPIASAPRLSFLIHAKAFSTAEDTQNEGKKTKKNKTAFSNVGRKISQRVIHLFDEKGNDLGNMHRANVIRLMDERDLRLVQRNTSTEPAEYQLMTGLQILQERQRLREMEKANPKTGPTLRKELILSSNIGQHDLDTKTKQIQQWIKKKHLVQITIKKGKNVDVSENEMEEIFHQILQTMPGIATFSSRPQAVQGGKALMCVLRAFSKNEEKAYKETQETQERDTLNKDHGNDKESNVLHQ
UniProt Q9H201: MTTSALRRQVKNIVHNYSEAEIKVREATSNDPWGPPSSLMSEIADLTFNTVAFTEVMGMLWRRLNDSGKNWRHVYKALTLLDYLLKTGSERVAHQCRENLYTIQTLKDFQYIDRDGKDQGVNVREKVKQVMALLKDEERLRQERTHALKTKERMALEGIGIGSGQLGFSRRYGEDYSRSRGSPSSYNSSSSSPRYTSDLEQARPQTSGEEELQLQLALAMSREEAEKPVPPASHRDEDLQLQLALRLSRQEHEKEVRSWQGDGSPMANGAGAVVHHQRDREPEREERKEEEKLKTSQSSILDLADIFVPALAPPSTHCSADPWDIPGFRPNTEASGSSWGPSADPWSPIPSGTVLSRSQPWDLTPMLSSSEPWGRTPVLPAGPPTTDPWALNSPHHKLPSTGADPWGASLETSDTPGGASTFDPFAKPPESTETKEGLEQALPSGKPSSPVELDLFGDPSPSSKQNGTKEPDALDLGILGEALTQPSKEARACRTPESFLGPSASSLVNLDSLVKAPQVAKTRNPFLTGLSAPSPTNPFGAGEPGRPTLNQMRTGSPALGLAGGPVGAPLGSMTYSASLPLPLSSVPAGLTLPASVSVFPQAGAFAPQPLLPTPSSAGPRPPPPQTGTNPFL
UniProt Q9H190: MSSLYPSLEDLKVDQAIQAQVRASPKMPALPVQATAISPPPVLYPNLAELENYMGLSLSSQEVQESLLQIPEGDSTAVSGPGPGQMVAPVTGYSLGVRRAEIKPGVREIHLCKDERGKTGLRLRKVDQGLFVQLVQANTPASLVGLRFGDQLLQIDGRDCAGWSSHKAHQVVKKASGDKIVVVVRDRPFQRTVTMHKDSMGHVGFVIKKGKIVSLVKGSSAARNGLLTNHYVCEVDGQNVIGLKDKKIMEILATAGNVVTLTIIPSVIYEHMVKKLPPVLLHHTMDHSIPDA
UniProt Q9BZF1: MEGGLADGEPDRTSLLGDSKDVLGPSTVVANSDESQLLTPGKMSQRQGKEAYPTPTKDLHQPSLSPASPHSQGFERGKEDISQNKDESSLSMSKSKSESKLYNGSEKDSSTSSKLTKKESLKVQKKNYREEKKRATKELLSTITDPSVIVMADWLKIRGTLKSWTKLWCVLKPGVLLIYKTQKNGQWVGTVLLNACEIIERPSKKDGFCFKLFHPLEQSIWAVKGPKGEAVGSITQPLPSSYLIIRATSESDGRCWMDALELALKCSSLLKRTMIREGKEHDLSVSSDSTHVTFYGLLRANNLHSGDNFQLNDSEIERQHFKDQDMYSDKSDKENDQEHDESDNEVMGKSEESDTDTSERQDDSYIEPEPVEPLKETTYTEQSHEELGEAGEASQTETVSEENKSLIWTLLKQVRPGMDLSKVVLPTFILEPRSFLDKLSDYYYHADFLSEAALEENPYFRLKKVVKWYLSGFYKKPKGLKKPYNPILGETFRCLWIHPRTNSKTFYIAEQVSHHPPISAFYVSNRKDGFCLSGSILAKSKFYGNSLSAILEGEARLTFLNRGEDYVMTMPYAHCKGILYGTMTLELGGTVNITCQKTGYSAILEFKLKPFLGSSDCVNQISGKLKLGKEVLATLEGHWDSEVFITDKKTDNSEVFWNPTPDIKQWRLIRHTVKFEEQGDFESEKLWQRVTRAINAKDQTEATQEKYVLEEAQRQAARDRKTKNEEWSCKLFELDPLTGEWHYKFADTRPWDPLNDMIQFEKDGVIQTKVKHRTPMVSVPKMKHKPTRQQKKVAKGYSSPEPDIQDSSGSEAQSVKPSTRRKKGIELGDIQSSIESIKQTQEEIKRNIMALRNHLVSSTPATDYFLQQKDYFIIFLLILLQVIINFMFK
UniProt Q9BYJ9: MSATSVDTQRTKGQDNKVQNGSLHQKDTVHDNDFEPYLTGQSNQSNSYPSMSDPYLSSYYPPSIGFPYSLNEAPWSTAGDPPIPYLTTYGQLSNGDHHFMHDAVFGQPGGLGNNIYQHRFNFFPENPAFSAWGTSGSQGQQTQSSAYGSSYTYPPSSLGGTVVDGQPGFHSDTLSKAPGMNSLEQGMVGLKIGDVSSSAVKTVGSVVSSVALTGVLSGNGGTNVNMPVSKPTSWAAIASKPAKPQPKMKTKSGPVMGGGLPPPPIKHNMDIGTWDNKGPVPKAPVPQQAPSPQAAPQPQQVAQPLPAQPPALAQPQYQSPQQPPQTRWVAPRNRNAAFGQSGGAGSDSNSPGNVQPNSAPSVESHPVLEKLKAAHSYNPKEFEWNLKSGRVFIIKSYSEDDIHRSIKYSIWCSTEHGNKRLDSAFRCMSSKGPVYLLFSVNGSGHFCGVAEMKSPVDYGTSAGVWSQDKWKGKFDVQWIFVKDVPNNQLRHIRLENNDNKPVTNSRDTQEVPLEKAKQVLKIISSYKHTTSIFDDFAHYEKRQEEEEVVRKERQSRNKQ
UniProt Q9H081: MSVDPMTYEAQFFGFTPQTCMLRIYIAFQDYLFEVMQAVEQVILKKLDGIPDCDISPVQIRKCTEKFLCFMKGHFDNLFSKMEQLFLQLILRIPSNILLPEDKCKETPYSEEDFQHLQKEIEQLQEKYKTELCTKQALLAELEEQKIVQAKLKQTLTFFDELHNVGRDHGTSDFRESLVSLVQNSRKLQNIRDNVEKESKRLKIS

The list shows a part of the results. Most entries show no effect beyond the scatter of the controls.

Compound in the test: CN[C@@H]1C[C@H]2O[C@@](C)([C@@H]1OC)n1c3ccccc3c3c4c(c5c6ccccc6n2c5c31)C(=O)NC4 [staurosporine]
In words: log2 fold change of tryptic peptide abundance, ligand vs vehicle (limited proteolysis) (log2 ratio); higher = more trypsin-susceptible (destabilized). The conditions noted are these: ligand concentration: 20 uM; sample: K562 cleared lysate; digestion: 4 min, 22 C (HT-PELSA RT4min, Orbitrap Astral).
Consider “SEMA4C (peptide sequence: GGLGHPLPELADELRR, peptide start residue: 800) (UniProt Q9C0C4)”, for which the log2 fold change is -0.103.
Regarding “UniProt Q9C0E8 (peptide sequence: ILEEVMEK, peptide start residue: 119)”, the log2 fold change is -0.116.
In the case of “GTPBP2 (peptide sequence: RGFQVTVHVGNVR, peptide start residue: 521) (UniProt Q9BX10)” it was -0.562; in that of “INO80B (peptide sequence: LGGQVLGTK, peptide start residue: 75) (UniProt Q9C086)”, 0.098.
Consider “UniProt Q9BWN1 (peptide sequence: LSPWGLAPLFR, peptide start residue: 241)”, for which the log2 fold change is 0.237.
For “MTIF3 (peptide sequence: DTLNKDHGNDKESNVLHQ, peptide start residue: 261) (UniProt Q9H2K0)” the value was -0.301; for “UniProt Q9H201 (peptide sequence: NIVHNYSEAEIK, peptide start residue: 12)”, 0.0153.
In the case of “UniProt Q9H190 (peptide sequence: FGDQLLQIDGR, peptide start residue: 148)”, the log2 fold change is -0.173.
Regarding “OSBPL8 (peptide sequence: GKEDISQNKDESSLSMSK, peptide start residue: 77) (UniProt Q9BZF1)”, the log2 fold change is -0.394.
In the case of “YTHDF1 (peptide sequence: PTSWAAIASKPAKPQPK, peptide start residue: 231) (UniProt Q9BYJ9)”, the log2 fold change is -1.14.
For the target “MIS12 (peptide sequence: DNVEKESK, peptide start residue: 193) (UniProt Q9H081)”, the log2 fold change was -0.809.
